Consider one substance from article PMC10141522.

The chains behind the UniProt entries cited, without tags or fusion partners.
UniProt P19532: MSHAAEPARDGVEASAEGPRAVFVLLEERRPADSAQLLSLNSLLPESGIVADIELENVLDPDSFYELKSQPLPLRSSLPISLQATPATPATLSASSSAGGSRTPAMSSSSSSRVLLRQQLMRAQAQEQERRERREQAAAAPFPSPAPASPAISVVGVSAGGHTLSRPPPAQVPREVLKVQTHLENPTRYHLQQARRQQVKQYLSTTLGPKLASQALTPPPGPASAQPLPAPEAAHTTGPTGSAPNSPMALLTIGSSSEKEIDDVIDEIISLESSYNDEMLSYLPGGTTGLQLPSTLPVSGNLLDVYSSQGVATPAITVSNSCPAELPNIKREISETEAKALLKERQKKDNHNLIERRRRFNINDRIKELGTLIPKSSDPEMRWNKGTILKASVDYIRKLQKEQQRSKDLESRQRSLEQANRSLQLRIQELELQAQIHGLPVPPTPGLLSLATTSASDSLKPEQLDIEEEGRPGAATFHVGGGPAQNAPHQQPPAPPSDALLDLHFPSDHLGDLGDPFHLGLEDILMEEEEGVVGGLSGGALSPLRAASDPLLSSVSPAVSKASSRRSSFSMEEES
UniProt Q13263: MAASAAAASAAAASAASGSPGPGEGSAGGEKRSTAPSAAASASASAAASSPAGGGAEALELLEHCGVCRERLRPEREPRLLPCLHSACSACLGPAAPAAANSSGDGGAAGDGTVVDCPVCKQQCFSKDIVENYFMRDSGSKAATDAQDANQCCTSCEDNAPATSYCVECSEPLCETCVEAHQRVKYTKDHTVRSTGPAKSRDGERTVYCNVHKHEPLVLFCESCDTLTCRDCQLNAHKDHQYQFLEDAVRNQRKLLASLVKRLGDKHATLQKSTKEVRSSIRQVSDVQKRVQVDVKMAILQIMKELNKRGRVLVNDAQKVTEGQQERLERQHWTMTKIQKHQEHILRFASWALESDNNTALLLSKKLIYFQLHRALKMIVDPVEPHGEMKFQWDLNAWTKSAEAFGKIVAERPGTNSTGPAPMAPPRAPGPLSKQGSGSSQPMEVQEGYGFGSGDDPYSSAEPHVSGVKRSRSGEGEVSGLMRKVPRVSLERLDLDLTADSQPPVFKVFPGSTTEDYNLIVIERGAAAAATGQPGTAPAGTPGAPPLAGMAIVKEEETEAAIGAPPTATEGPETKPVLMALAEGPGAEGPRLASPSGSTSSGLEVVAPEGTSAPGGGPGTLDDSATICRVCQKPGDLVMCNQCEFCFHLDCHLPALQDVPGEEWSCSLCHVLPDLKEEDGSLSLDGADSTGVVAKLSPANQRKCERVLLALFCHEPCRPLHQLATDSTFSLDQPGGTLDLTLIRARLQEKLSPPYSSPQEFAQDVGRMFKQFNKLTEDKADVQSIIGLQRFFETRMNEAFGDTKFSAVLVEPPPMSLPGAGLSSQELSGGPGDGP

No constants are given. Whether binding was seen depends on the method and setting. Binding seen in cells or lysates may run through a third protein. Some entries that bind do so weakly or less than the wild type.

The experiment concerns the target TFE3 (UniProt P19532). Briefly: co-IP; coimmunoprecipitation and Western blot (Fig. S3D, E); cells lysed in IPE150 buffer (20 mM Hepes pH 7.5, 150 mM NaCl, 0.5% NP40, 10% glycerol) with sonication; cells and bait not told in the text shown. A general note: In western blotting, separated proteins are transferred to a membrane and probed.

For TRIM28 (from UniProt Q13263 1-835), the binding result is reported as “binds”.
